According to article PMC3349753:
No constants are given. Whether binding was seen depends on the method and setting. In cells and extracts the contact can be indirect. Some entries that bind do so weakly or less than the wild type. Sequences can lack the tags named with a protein.

Amino acid sequences for entries named in this document (tags omitted).
UniProt P60953: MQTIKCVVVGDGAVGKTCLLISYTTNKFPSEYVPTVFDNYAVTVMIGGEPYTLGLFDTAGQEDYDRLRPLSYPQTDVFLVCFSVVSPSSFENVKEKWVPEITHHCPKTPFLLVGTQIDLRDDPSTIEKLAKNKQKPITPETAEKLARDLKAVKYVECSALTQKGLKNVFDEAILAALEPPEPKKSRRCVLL

What was measured:
[1] = target: Myc-tagged full-length FGD4 (FYVE, RhoGEF and PH domain-containing 4) (human) (UniProt Q96M96); assay: co-IP; NPC-TW01 cells co-expressing Flag-FGD4 and Myc-FGD4 or its truncated forms; lysates precipitated with anti-Flag affinity matrix
Flag-tagged Cdc42 = Flag-tagged Cdc42 (UniProt P60953); assay: co-IP; NPC-TW01 cells co-expressing Flag-tagged Cdc42 and Myc-tagged full-length or truncated FGD4; lysates precipitated with anti-Flag affinity matrix; blot with anti-Flag and anti-Myc

binding [1]: binds | binding (Flag-tagged Cdc42): binds
B1: Myc-tagged full-length FGD4 (FYVE, RhoGEF and PH domain-containing 4) (protein, UniProt Q96M96 1-766)
chain: MEEIKPASASCVSKEKPSKVSDLISRFEGGSSLSNYSDLKKESAVNLNAPRTPGRHGLTTTPQQKLLSQHLPQRQGNDTDKTQGAQTCVANGVMAAQNQMECEEEKAATLSSDTSIQASEPLLDTHIVNGERDETATAPASPTTDSCDGNASDSSYRTPGIGPVLPLEERGAETETKVQERENGESPLELEQLDQHHEMKETNEQKLHKIANELLLTERAYVNRLDLLDQVFYCKLLEEANRGSFPAEMVNKIFSNISSINAFHSKFLLPELEKRMQEWETTPRIGDILQKLAPFLKMYGEYVKGFDNAMELVKNMTERIPQFKSVVEEIQKQKICGSLTLQHHMLEPVQRIPRYEMLLKDYLRKLPPDSLDWNDAKKSLEIISTAASHSNSAIRKMENLKKLLEIYEMLGEEEDIVNPSNELIKEGQILKLAARNTSAQERYLFLFNNMLLYCVPKFSLVGSKFTVRTRVGIDGMKIVETQNEEYPHTFQVSGKERTLELQASSAQDKEEWIKALQETIDAFHQRHETFRNAIAKDNDIHSEVSTAELGKRAPRWIRDNEVTMCMKCKEPFNALTRRRHHCRACGYVVCWKCSDYKAQLEYDGGKLSKVCKDCYQIISGFTDSEEKKRKGILEIESAEVSGNSVVCSFLQYMEKSKPWQKAWCVIPKQDPLVLYMYGAPQDVRAQATIPLLGYVVDEMPRSADLPHSFKLTQSKSVHSFAADSEELKQKWLKVILLAVTGETPGGPNEHPATLDDHPEPKKKSEC
